At least one structure is not confirmed: it was looked up by name or label, or the drawing left a doubt.
System: collagenase
Experiment: Experiment B. Concentration-Dependent Inhibition Test of Collagenase Activity
Type: biochemical
Details: 100 μg/ml

SMILES: C[C@H]1c2cccc(O)c2C(=O)C2=C(O)[C@]3(O)C(=O)C(C(N)=O)=C(O)[C@@H](N(C)C)[C@@H]3[C@@H](O)[C@@H]21 [doxycycline]
- Inhibition rate (%): 100 ± 0.0%
